Laboratory results: PubChem BioAssay AID493246 (Drosophila RNAi Screening Center, 2011)

Aim: 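Genes fly cells need to grow and stay alive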 (primary screen)
Cells: Drosophila Kc and S2R+ cells
Knock-down reagent: long dsRNA against Drosophila genes
Read-out: 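Cell number per well after knock-down, printed as raw plate values; calls were based on per-plate z-scores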
Direction: Kc cell number and S2R+ cell number: higher = more cells remaining
Rule for the call: 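Active when the per-plate z-score of cell number is 3 or more in the direction of fewer cells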
The deposit covers about 21,000 reagents; this is a random part of those that have a named target and a result. Over the whole deposit, 429 (2%) are marked active. 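Values are raw and not normalised between plates; calls rest on per-plate z-scores that were not deposited.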 Unmarked entries are inactive. The numbers tell different reagents against one gene apart. Not stated in the record: the amount of reagent, the time to read-out.

Silencing of CG13786 came out at: Kc cell number, rep 1 = 1.60e6; Kc cell number, rep 2 = 1.53e6; S2R+ cell number, rep 1 = 1.08e6; S2R+ cell number, rep 2 = 1.26e6.
Silencing of Sp7 gave: Kc cell number, rep 1 = 1.41e6; Kc cell number, rep 2 = 1.53e6; S2R+ cell number, rep 1 = 1.26e6; S2R+ cell number, rep 2 = 1.36e6.
For Rbp #1, the entry reads Kc cell number, rep 1 = 9.14e5 (active); Kc cell number, rep 2 = 9.61e5; S2R+ cell number, rep 1 = 4.99e5; S2R+ cell number, rep 2 = 5.24e5.
Against Rbp #2 the deposit lists Kc cell number, rep 1 = 1.57e6; Kc cell number, rep 2 = 1.61e6; S2R+ cell number, rep 1 = 1.12e6; S2R+ cell number, rep 2 = 1.21e6.
Silencing of CG12713 came out at: Kc cell number, rep 1 = 1.49e6; Kc cell number, rep 2 = 1.49e6; S2R+ cell number, rep 1 = 1.24e6; S2R+ cell number, rep 2 = 1.26e6.
Depletion of SmydA-5 came out at: Kc cell number, rep 1 = 1.54e6; Kc cell number, rep 2 = 1.53e6; S2R+ cell number, rep 1 = 1.35e6; S2R+ cell number, rep 2 = 1.45e6.
CG13630 showed Kc cell number, rep 1 = 1.66e6; Kc cell number, rep 2 = 1.66e6; S2R+ cell number, rep 1 = 1.29e6; S2R+ cell number, rep 2 = 1.34e6.
Knock-down of CG6893 came out at: Kc cell number, rep 1 = 1.64e6; Kc cell number, rep 2 = 1.84e6; S2R+ cell number, rep 1 = 1.49e6; S2R+ cell number, rep 2 = 1.59e6.
After knock-down of rig #1 the results were Kc cell number, rep 1 = 1.23e6; Kc cell number, rep 2 = 1.36e6; S2R+ cell number, rep 1 = 1.16e6; S2R+ cell number, rep 2 = 1.21e6.
Knock-down of rig #2 gave: Kc cell number, rep 1 = 1.61e6; Kc cell number, rep 2 = 1.35e6; S2R+ cell number, rep 1 = 9.63e5; S2R+ cell number, rep 2 = 1.26e6.
For dwg, the values are Kc cell number, rep 1 = 5.59e5; S2R+ cell number, rep 1 = 8.69e5.
After knock-down of Taf12, the screen gave Kc cell number, rep 1 = 1.67e6; Kc cell number, rep 2 = 1.73e6; S2R+ cell number, rep 1 = 1.18e6; S2R+ cell number, rep 2 = 1.25e6.
For CG9837 the deposit lists Kc cell number, rep 1 = 1.35e6; Kc cell number, rep 2 = 1.40e6; S2R+ cell number, rep 1 = 1.29e6; S2R+ cell number, rep 2 = 1.37e6.
Silencing of CG34458 came out at: Kc cell number, rep 1 = 1.65e6; Kc cell number, rep 2 = 1.66e6; S2R+ cell number, rep 1 = 1.25e6; S2R+ cell number, rep 2 = 1.48e6.

A run of entries from the list above, for reference:
CG13786 | Kc cell number, rep 1: 1.60e6; Kc cell number, rep 2: 1.53e6; S2R+ cell number, rep 1: 1.08e6; S2R+ cell number, rep 2: 1.26e6
Sp7 | Kc cell number, rep 1: 1.41e6; Kc cell number, rep 2: 1.53e6; S2R+ cell number, rep 1: 1.26e6; S2R+ cell number, rep 2: 1.36e6
